Source: PMC12431657, “Discovery and mechanistic insights of dibenzoylmethane as a broad spectrum inhibitor of coronavirus” (PLOS Pathogens, 2025)
Where a name gives a salt, the structure may show the parent alone. Read-outs that look alike come from different tables or passages of the source. The campaign covered roughly 3,300 compounds. About 60 (2%) showed an effect of 50% or more. This is one part of the list.

Tested on: HCoV-OC43
Parameters: species or system RD; HTS, protection from HCoV-OC43 induced cell death, luminescent cell viability (CellCounting-Lite 2.0), inhibition rate
Conditions: 24 h post infection, 1 h compound pre-incubation, 10 µM, inhibitor

| SMILES | OC43 Inhibition rate [%] | OC43 Inhibition rate (OC43 Inhibition rate, 24 h) [%] |
| --- | --- | --- |
| COc1ccc2cc1Oc1ccc(cc1)C[C@H]1c3c(cc4c(c3Oc3cc5c(cc3OC)CCN(C)[C@@H]5C2)OCO4)CCN1C [Cepharanthine] | -0.2 |  |
| COc1cc(C(O)C(=O)O)ccc1O (stereo not drawn) [Vanillylmandelic acid] | -1.7 |  |
| CCC/C=C1\OC(=O)C2=C1CC[C@H](O)[C@H]2O [Senkyunolide I] | -0.4 |  |
| OC[C@H]1O[C@@H](Oc2cc3c(O)cc(O)cc3[o+]c2-c2ccc(O)c(O)c2)[C@H](O)[C@@H](O)[C@@H]1O [Kuromanin (chloride)] | -1.3 |  |
| C[N+](C)(C)CC(O)CC(=O)O (racemic) [(±)-Carnitine (chloride)] | 4.8 |  |
| O=C1C[C@@H](C(=O)O)NC(=O)N1 [L-Dihydroorotic acid] | -1.6 |  |
| COc1ccc(CC(=O)c2ccc(O)cc2O)cc1 [Ononetin] | -0.5 |  |
| c1cn[nH]c1 [1H-pyrazole] | -0.2 |  |
| Nc1nc(=O)c2c([nH]1)NCC(CNc1ccc(C(=O)N[C@@H](CCC(=O)O)C(=O)O)cc1)=N2 [Dihydrofolic acid] | -0.3 |  |
| Cc1ccc(C(=O)O)cc1C [3,4-Dimethylbenzoic acid] | 0.5 |  |
| O=C(O)C(=O)O [Oxalic acid dihydrate] |  | -0.6 |
| COc1ccc(-c2coc3cc(O)cc(O)c3c2=O)cc1 [Biochanin A] | -0.7 |  |
| O=C(/C=C/C=C/c1ccccc1)CCc1ccccc1 [Alnustone] | 1.1 |  |
| CC(C)=CCOc1ccc2ccc(=O)oc2c1 [7-Prenyloxycoumarin] | 0 |  |
| COC1=CC(=O)C[C@@H](C)[C@]12Oc1c(Cl)c(OC)cc(OC)c1C2=O [Griseofulvin] | 0.1 |  |
| Oc1cccc(O)c1O [Pyrogallol] | -1.9 |  |
| CC(C)=CCC[C@](C)(O[C@@H]1O[C@H](CO[C@@H]2O[C@H](CO)[C@@H](O)[C@H](O)[C@H]2O)[C@@H](O)[C@H](O)[C@H]1O)[C@H]1CC[C@]2(C)[C@@H]1[C@H](O)C[C@@H]1[C@@]3(C)CC[C@H](O[C@@H]4O[C@H](CO)[C@@H](O)[C@H](O)[C@H]4O)C(C)(C)[C@@H]3CC[C@]12C [Gypenoside XVII] | -0.5 |  |
| NC(N)=NCCCC(N)C(=O)O (racemic) [DL-Arginine] | 5 |  |
| CC(=O)NCCCC(=O)O [4-Acetamidobutanoic acid] | 1 |  |
| O=c1[nH]c2ccccc2o1 [2-Benzoxazolinone] | 0.6 |  |

Fetched one by one from the list above:

| SMILES | OC43 Inhibition rate [%] | OC43 Inhibition rate (OC43 Inhibition rate, 24 h) [%] |
| --- | --- | --- |
| COc1ccc2cc1Oc1ccc(cc1)C[C@H]1c3c(cc4c(c3Oc3cc5c(cc3OC)CCN(C)[C@@H]5C2)OCO4)CCN1C [Cepharanthine] | -0.2 |  |
| O=C(/C=C/C=C/c1ccccc1)CCc1ccccc1 [Alnustone] | 1.1 |  |

The list continues.

| SMILES | OC43 Inhibition rate [%] | OC43 Inhibition rate (OC43 Inhibition rate, 24 h) [%] |
| --- | --- | --- |
| C[C@@H]1O[C@@H](O[C@H]2[C@H](O)[C@@H](O)[C@H](O[C@H]3CC[C@]4(C)[C@H]5CC=C6[C@@H]7CC(C)(C)CC[C@]7(CO)[C@@H](O)C[C@@]6(C)[C@]5(C)CC[C@H]4C3(C)C)O[C@@H]2CO[C@@H]2O[C@H](CO)[C@@H](O)[C@H](O)[C@H]2O)[C@H](O)[C@H](O)[C@H]1O [Saikosaponin F] | -1.1 |  |
| C[C@H]1O[C@@H](O[C@H]2CC[C@]3(C)[C@H]4C=C[C@]56OC[C@@]7(CCC(C)(C)C[C@H]75)[C@@H](O)C[C@@]6(C)[C@]4(C)CC[C@H]3C2(C)C)[C@H](O)[C@@H](O[C@@H]2O[C@H](CO)[C@@H](O)[C@H](O)[C@H]2O)[C@H]1O [Saikosaponin E] | 7.1 |  |
| CC(C)=CC[C@@H](OC(=O)C=C(C)C)C1=CC(=O)c2c(O)ccc(O)c2C1=O [β,β-Dimethylacrylshikonin] | -0.4 |  |
| C[C@]1(O)C[C@@H](O)[C@]2(O)C=CO[C@@H](O[C@H]3O[C@H](CO)[C@@H](O)[C@H](O)[C@H]3O)[C@@H]21 [Harpagide] | 1.1 |  |
| CC(C)=CCC1C(=O)C(C(=O)CC(C)C)=C(O)C(O)(CC=C(C)C)C1=O (stereo not drawn) [Humulone] | -1 |  |
| O=C(/C=C/c1ccc(O)c(O)c1/C=C/c1ccc(O)c(O)c1)O[C@H](Cc1ccc(O)c(O)c1)C(=O)O [Salvianolic acid A] | 1.3 |  |
| O=C(CO)[C@@H](O)[C@H](O)[C@H](O)CO [D-Fructose] |  | -0.1 |
| CC1(C)CC[C@]2(C(=O)O)[C@H](O)C[C@]3(C)C(=CC[C@@H]4[C@@]5(C)C[C@H](O)[C@H](O[C@@H]6O[C@H](CO)[C@@H](O)[C@H](O)[C@H]6O)C(CO)(CO)[C@@H]5CC[C@]43C)[C@@H]2C1 [3-O-Beta-D-Glucopyranosylplatycodigenin] | -0.3 |  |
| COc1cc2c[n+](C)c3c4cc5c(cc4ccc3c2cc1OC)OCO5 [Nitidine (chloride)] | -0.2 |  |
| NCCC(=O)O [β-Alanine] | -3.6 |  |
| CC(=O)Cc1cc(=O)c2c(C)cc(O)c([C@@H]3O[C@H](CO)[C@@H](O)[C@H](O)[C@H]3O)c2o1 [Aloesin] | -0.5 |  |
| CC(=O)c1ccccc1 [Acetophenone] | 0 |  |
| COc1cc(C[C@H]2C(=O)OC[C@@H]2Cc2ccc(OC)c(OC)c2)ccc1O [Arctigenin] | -6.1 |  |
| CC[C@@]1([C@H]2O[C@H]([C@H]3O[C@@](O)(CO)[C@H](C)C[C@@H]3C)C[C@H]2C)CC[C@H]([C@@]2(C)CC[C@]3(C[C@H](O)[C@@H](C)[C@@H]([C@H](C)[C@H](OC)[C@@H](C)C(=O)O)O3)O2)O1 [Monensin sodium salt] | -0.8 |  |
| C[C@@]12CC[C@@H]3[C@@](CC[C@H]4[C@@]3(C)CCC[C@@]4(C)C(=O)O)(CC1=O)C2 [Isosteviol] | -1.1 |  |
| Oc1cc(O)cc(-c2cc3ccc(O)cc3o2)c1 [Moracin M] | -0.7 |  |
| CC(=O)CCC=C(C)C [Sulcatone] | 0.5 |  |
| O=C(c1ccc(OCCN2CCCCC2)cc1)c1c(-c2ccc(O)cc2)sc2cc(O)ccc12 [Raloxifene (hydrochloride)] | -11.3 |  |
| CC(=O)O[C@H]1C[C@@]2(C)[C@@H](C[C@@H](O)[C@H]3[C@@]4(C)CC[C@@H](O)[C@@H](C)[C@@H]4CC[C@@]32C)/C1=C(\CCC=C(C)C)C(=O)O [Fusidic acid] |  | 34.6 |
